Earlier results on 1 compound are cited in US20220142957A1, “TERPENE BASED THERAPEUTIC DEEP EUTECTIC SYSTEM, METHOD OF OBTAINING AND USES THEREOF” (priority 2019, published 2022).

The conditions of the series: cited from earlier work.

`CC(C)Cc1ccc(C(C)C(=O)O)cc1` (stereo not shown) [IBU, Ibuprofen]: the solubility in water result is reported as “≈ 2 mg mL^−1”.
